In the supplement of paper PMC6078165:
± gives the standard deviation of the averaged measurements. The reference is the same well before dosing, and untreated signal decays as well.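 Fibroblast labels denote human fibroblasts, mainly primary ones from uterus (C12385, HUF), lung (H6013), bone (Hs27A), adrenal (HADF) and skin (WS1), plus mammary HMF and breast cancer-associated Hs343T. Cancer cells are basal-like or mesenchymal-like triple-negative breast cancer lines. A hit is a response shift exceeding 3x replicate standard deviation. The tissue of the other fibroblasts is not given here.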

Test system: BT20
Assay: relative JC-1 red fluorescence (viability) vs pre-drug, coculture with fibroblast (fraction); higher = more viable cancer cells
Details: 10 µM
Experimental: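 JC-1 labelled TNBC cells cocultured 1:1 (1,500 cells each) with CellTrace Violet stained primary or stromal fibroblasts in 384-well plates in FluoroBrite medium, treated with one of 42 anticancer drugs at 0.1, 1, 10 or 100 uM. JC-1 red fluorescence (mitochondrial integrity in cancer cells only) was read by plate reader every 8 h for 72 h. Values are normalised to each well's pre-drug value. The stock of one drug was tenfold lower, so its dose labels may be too high.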

CC(C)C[C@H](NC(=O)[C@@H](COC(C)(C)C)NC(=O)[C@H](Cc1ccc(O)cc1)NC(=O)[C@H](CO)NC(=O)[C@H](Cc1c[nH]c2ccccc12)NC(=O)[C@H](Cc1cnc[nH]1)NC(=O)[C@@H]1CCC(=O)N1)C(=O)N[C@@H](CCCNC(=N)N)C(=O)N1CCC[C@H]1C(=O)NNC(N)=O [Goserelin]
relative JC-1 red fluorescence
Details	8 h	16 h	24 h	32 h	40 h	48 h	56 h	64 h	72 h
coculture fibroblast: C12385	0.907 ± 0.012	0.7941 ± 0.0015	0.758 ± 0.008	0.695 ± 0.017	0.636 ± 0.029	0.603 ± 0.024	0.567 ± 0.016	0.538 ± 0.019	0.52 ± 0.017
coculture fibroblast: H6013	0.9328 ± 0.0085	0.899 ± 0.0061	0.874 ± 0.036	0.839 ± 0.027	0.795 ± 0.032	0.773 ± 0.022	0.775 ± 0.028	0.757 ± 0.033	0.742 ± 0.025
coculture fibroblast: H6019	0.868 ± 0.017	0.818 ± 0.0099	0.79 ± 0.016	0.73 ± 0.014	0.6859 ± 0.0048	0.6652 ± 0.0012	0.637 ± 0.007	0.608 ± 0.012	0.585 ± 0.016
coculture fibroblast: H6076	0.934 ± 0.082	0.934 ± 0.054	0.876 ± 0.093	0.842 ± 0.097	0.822 ± 0.13	0.812 ± 0.14	0.808 ± 0.16	0.807 ± 0.18	0.796 ± 0.19
coculture fibroblast: H6231	0.828 ± 0.074	0.904 ± 0.017	0.8275 ± 0.0046	0.766 ± 0.01	0.734 ± 0.0097	0.683 ± 0.0099	0.649 ± 0.0099	0.622 ± 0.0088	0.596 ± 0.012
coculture fibroblast: HADF	0.915 ± 0.11	0.883 ± 0.03	0.841 ± 0.078	0.797 ± 0.075	0.755 ± 0.063	0.721 ± 0.056	0.716 ± 0.044	0.699 ± 0.037	0.664 ± 0.04
coculture fibroblast: HCFa	0.8904 ± 0.0031	0.845 ± 0.021	0.834 ± 0.044	0.766 ± 0.042	0.715 ± 0.037	0.676 ± 0.043	0.656 ± 0.051	0.642 ± 0.048	0.608 ± 0.052
coculture fibroblast: HCPF	0.842 ± 0.12	0.896 ± 0.028	0.834 ± 0.021	0.782 ± 0.034	0.739 ± 0.057	0.682 ± 0.062	0.643 ± 0.073	0.631 ± 0.077	0.587 ± 0.079
coculture fibroblast: HHSteC	0.929 ± 0.011	0.862 ± 0.014	0.876 ± 0.05	0.821 ± 0.067	0.786 ± 0.077	0.752 ± 0.088	0.735 ± 0.1	0.711 ± 0.12	0.681 ± 0.13
coculture fibroblast: HMF	0.768 ± 0.11	0.933 ± 0.029	0.861 ± 0.094	0.816 ± 0.14	0.788 ± 0.18	0.753 ± 0.2	0.731 ± 0.23	0.706 ± 0.24	0.678 ± 0.25
coculture fibroblast: HPFa	0.862 ± 0.19	0.911 ± 0.046	0.91 ± 0.056	0.814 ± 0.037	0.761 ± 0.047	0.702 ± 0.05	0.661 ± 0.056	0.614 ± 0.059	0.55 ± 0.067
coculture fibroblast: HUF	0.9385 ± 0.0011	0.85 ± 0.018	0.848 ± 0.029	0.784 ± 0.038	0.758 ± 0.036	0.724 ± 0.027	0.721 ± 0.033	0.708 ± 0.028	0.695 ± 0.029
coculture fibroblast: Hs5	0.85 ± 0.18	0.899 ± 0.061	0.818 ± 0.066	0.759 ± 0.069	0.711 ± 0.081	0.663 ± 0.077	0.627 ± 0.072	0.586 ± 0.069	0.559 ± 0.07
coculture fibroblast: Hs27A	0.778 ± 0.085	0.797 ± 0.062	0.941 ± 0.02	0.928 ± 0.028	0.877 ± 0.033	0.851 ± 0.021	0.825 ± 0.023	0.792 ± 0.041	0.73 ± 0.043
coculture fibroblast: Hs343T	0.802 ± 0.039	0.9521 ± 0.0094	0.852 ± 0.021	0.804 ± 0.027	0.729 ± 0.021	0.669 ± 0.011	0.5959 ± 0.0014	0.5596 ± 0.0042	0.509 ± 0.0053
coculture fibroblast: WS1	0.859 ± 0.0095	0.764 ± 0.0095	0.7005 ± 0.0056	0.625 ± 0.0063	0.548 ± 0.015	0.516 ± 0.017	0.476 ± 0.019	0.441 ± 0.024	0.411 ± 0.029
